The text below walks through data of PMC10850085 (Nature Communications, 2024).

By UniProt entry, the sequences of proteins in these tests, tags left out. Where a name states a change or a piece, a line headed by the entry shows the natural chain unless it says otherwise.
UniProt Q08351: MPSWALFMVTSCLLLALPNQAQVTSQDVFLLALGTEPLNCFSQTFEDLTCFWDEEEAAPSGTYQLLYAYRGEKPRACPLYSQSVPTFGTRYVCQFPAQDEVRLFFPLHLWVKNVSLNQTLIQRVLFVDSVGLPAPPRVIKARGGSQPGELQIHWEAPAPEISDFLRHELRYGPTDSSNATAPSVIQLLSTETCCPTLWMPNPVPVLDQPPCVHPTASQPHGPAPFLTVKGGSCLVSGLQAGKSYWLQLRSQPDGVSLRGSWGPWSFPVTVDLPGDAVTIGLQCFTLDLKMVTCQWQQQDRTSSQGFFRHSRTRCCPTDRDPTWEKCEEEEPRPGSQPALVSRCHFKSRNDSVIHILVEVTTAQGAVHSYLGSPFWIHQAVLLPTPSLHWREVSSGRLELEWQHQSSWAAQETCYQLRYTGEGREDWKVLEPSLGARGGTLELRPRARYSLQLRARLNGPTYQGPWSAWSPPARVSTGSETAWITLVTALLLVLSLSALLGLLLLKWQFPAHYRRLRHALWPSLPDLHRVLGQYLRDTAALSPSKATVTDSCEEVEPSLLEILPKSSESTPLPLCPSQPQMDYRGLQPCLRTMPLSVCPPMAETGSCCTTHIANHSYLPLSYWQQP

No constants are given. Whether binding was seen depends on the method and setting. Binding can be weak; no strength is given.

The target of this assay is T1, peptide version of romiplostim (two copies of … connected by a GG linker).
T1 sequence (peptide, N-terminal biotin moiety): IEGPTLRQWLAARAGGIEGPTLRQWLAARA
Nature of the assay: SPR; TpoR (monomeric, dimeric or mutants) as analyte over N-terminally biotinylated romiplostim peptides on streptavidin chips; HBS-EP; two-fold dilution series, highest 100 nM; both purified.

With “murine TpoR (F104S) (from UniProt Q08351) (receptor)”, the binding entry was “no binding”.
As for “murine TpoR (F105A) (from UniProt Q08351) (receptor)”, the binding result was “binds”.
